US20230070181A1
No constants are given. Whether binding was seen depends on the method and setting. Binding seen in cells or lysates may run through a third protein. Some results given as binding are weak or reduced against the parent protein; the word gives no strength.

By UniProt entry, the sequences of proteins in these tests, tags left out. Residues count along the entry.
UniProt Q96KQ7, residues 2-1210: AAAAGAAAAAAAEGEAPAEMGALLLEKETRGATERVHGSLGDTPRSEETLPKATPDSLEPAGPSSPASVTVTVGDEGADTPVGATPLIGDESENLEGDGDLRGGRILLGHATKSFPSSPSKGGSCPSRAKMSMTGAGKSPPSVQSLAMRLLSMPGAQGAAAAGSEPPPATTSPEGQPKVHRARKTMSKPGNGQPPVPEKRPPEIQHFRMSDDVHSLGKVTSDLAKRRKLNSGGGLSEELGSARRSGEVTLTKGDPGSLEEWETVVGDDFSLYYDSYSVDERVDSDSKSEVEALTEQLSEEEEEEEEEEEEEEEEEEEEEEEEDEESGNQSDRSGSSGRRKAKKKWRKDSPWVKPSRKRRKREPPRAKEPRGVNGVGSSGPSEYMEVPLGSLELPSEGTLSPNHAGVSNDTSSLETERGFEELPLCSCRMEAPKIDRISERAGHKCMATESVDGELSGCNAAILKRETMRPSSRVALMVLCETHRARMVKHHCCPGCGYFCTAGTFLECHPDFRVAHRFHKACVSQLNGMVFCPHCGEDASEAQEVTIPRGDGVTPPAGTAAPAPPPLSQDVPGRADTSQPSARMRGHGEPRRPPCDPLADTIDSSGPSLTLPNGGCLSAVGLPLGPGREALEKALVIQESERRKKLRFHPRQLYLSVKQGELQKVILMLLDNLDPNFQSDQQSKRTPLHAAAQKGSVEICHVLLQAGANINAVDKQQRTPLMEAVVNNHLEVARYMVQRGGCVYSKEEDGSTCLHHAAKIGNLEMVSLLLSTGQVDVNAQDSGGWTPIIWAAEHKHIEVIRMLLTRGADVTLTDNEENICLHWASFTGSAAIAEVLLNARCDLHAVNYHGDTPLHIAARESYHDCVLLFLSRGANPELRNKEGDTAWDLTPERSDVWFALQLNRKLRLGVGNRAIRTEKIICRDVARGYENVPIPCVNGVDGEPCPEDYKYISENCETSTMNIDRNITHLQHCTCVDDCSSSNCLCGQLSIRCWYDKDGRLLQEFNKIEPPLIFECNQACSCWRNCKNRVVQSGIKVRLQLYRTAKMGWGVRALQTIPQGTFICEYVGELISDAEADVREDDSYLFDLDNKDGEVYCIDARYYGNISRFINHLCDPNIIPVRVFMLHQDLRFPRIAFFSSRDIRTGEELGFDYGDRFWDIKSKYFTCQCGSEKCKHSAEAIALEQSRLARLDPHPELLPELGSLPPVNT
UniProt Q9H9B1, residues 2-1298: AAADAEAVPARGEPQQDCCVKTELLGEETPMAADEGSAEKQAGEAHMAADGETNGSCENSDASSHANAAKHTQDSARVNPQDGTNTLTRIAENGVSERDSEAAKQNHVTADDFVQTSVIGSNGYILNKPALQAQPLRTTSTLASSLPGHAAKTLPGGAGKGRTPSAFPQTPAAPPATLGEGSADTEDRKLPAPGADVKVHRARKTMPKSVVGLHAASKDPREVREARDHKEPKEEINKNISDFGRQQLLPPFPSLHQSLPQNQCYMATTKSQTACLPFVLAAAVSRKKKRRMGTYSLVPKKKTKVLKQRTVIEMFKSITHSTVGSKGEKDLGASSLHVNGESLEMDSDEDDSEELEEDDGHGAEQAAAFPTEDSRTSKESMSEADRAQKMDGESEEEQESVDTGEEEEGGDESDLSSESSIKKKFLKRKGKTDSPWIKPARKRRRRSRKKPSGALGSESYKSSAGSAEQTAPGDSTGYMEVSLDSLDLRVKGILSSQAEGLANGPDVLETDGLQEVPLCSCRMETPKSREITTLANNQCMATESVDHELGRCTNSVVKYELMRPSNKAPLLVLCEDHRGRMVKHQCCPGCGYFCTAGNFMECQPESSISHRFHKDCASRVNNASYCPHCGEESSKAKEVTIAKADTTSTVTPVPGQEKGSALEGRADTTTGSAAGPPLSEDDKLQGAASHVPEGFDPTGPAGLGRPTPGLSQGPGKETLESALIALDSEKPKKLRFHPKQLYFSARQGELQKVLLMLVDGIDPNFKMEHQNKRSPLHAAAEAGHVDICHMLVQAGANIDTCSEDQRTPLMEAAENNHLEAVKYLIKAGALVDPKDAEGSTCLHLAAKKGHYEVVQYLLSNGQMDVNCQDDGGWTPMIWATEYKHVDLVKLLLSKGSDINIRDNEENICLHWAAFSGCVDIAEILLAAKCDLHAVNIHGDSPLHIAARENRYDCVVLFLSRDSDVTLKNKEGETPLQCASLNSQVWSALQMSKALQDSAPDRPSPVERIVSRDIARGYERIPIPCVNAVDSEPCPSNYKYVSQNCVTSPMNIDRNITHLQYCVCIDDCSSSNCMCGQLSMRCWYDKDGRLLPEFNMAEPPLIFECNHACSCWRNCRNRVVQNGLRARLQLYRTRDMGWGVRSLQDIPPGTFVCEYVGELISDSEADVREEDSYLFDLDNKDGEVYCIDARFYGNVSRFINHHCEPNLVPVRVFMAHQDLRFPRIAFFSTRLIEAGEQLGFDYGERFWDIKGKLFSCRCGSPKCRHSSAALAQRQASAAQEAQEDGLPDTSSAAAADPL

How the values were obtained:
[1] = biological target: histone methyltransferase G9a (H3K9 methyltransferase G9a/EHMT2), endogenous in MCF7 lysates (human) (UniProt Q96KQ7); test: co-immunoprecipitation, immunoblot
[2] = biological target: GLP (H3K9 methyltransferase GLP/EHMT1), endogenous in MCF7 lysates (human) (UniProt Q9H9B1); test: co-immunoprecipitation from MCF7 lysates, immunoblot
[3] = biological target: histone methyltransferase G9a (H3K9 methyltransferase G9a/EHMT2), endogenous in MCF7 lysates (human) (UniProt Q96KQ7); test: as above
[4] = biological target: GLP (H3K9 methyltransferase GLP/EHMT1), endogenous in MCF7 lysates (human) (UniProt Q9H9B1); test: co-immunoprecipitation (CDYL2 IP) from MCF7 lysates, immunoblot
[5] = biological target: histone methyltransferase G9a (H3K9 methyltransferase G9a/EHMT2), endogenous in MCF7 lysates (human) (UniProt Q96KQ7); test: as above
[6] = biological target: GLP (H3K9 methyltransferase GLP/EHMT1), endogenous in MCF7 lysates (human) (UniProt Q9H9B1); test: co-immunoprecipitation from MCF7 lysates, immunoblot (FIG. 7)
[7] = biological target: histone methyltransferase G9a (H3K9 methyltransferase G9a/EHMT2), endogenous in MCF7 lysates (human) (UniProt Q96KQ7); test: as above

Measured: binding

B1: Chromodomain on Y-like 2 (CDYL2), endogenous protein in MCF7 / HEK293T cell lysates (protein)
chain: MASGDLYEVERIVDKRKNKKGKWEYLIRWKGYGSTEDTWEPEHHLLHCEEFIDEFNGLHMSKDKRIKSGKQSSTSKLLRDSRGPSVEKLSHRPSDPGKSKGTSHKRKRINPPLAKPKKGYSGKPSSGGDRATKTVSYRTTPSGLQIMPLKKSQNGMENGDAGSEKDERHFGNGSHQPGLDLNDHVGEQDMGECDVNHATLAENGLGSALTNGGLNLHSPVKRKLEAEKDYVFDKRLRYSVRQNESNCRFRDIVVRKEEGFTHILLSSQTSDNNALTPEIMKEVRRALCNAATDDSKLLLLSAVGSVFCSGLDYSYLIGRLSSDRRKESTRIAEAIRDFVKAFIQFKKPIVVAINGPALGLGASILPLCDIVWASEKAWFQTPYATIRLTPAGCSSYTFPQILGVALANEMLFCGRKLTAQEACSRGLVSQVFWPTTFSQEVMLRVKEMASCSAVVLEESKCLVRSFLKSVLEDVNEKECLMLKQLWSSSKGLDSLFSYLQDKIYEV
binds: all assays above
